# Screen size: about 330,000 compounds; about 7,700 (2.3%) were called active. The shares of active, inactive and inconclusive entries below differ from those in the screen. Calls follow the shape of the dose curve; as a rule, active = well fitted inhibition curve with a large enough effect; inconclusive = small, poorly fitted or top-dose-only effect, or effect the other way; inactive = flat fitted curve, though single readings scatter. A potency beside an inconclusive call is a rough fit, not a confirmed value.
# Assay: qHTS screen for small molecules that inhibit ELG1-dependent DNA repair in human embryonic kidney (HEK293T) cells expressing luciferase-tagged ELG1; also: nearly all actives have a fitted effect of over 55% in size
# Conditions: HEK293T ELG1-luciferase reporter, luminescence, 16 h, DNA damage induced by 5-fluorouridine; activity change, negative = inhibition: at 46.1 µM (top of the series)
# Procedure, shortened: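 HEK293T cells expressing luciferase-tagged ELG1 (2,000/well) received 5-Fluorouridine plus compound or DMSO for 16 hr at 37 °C. Luciferase was read by ONE-Glo luminescence after 30 min at room temperature.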
# % is scaled to controls: 0 for no effect and ±100 for the full control effect; potency is read from the fitted curve at half-maximal effect.
Structure (SMILES),"activity change, negative = inhibition",Potency
CCOC(=O)C1C(O)=CC(=O)CC1c1ccccc1 (configuration not stated),inactive: -0.907%,–
Fc1ccccc1CCNc1nnnn1-c1ccccc1,–,"inconclusive: 23.1 µM [inhibitor, single point]"
CC(C)NC(=S)N/N=C/c1sc(N2CCCCC2)nc1-c1cccs1,–,"inconclusive: 11.6 µM [activator, partial curve]"
Cc1ccccc1CN1CCN(CC(=O)NC(C)c2ccccc2)CC1 (configuration not stated),inactive: -6.9%,–
COCCCN(C(=O)Cc1csc(-c2cccc(Cl)c2)n1)c1c(N)n(Cc2ccccc2)c(=O)[nH]c1=O,–,"inconclusive: 29.1 µM [inhibitor, single point]"
COCCCNC(=O)CCS(=O)(=O)Cc1ccc(C)cc1,inactive: -2.61%,–
COc1ccc([N+](=O)[O-])cc1N(CC(=O)N(C)C)S(C)(=O)=O,inactive: -0.453%,–
Cc1ccc(S(=O)(=O)Nc2ccc(N3CCOCC3)cc2)cc1[N+](=O)[O-],–,"inconclusive: 16.4 µM [inhibitor, partial curve]"
Cc1ccc(C(=O)c2c3ccc(C(F)(F)F)cc3nn2CCC(N)=O)cc1,–,"inconclusive: 22.4 µM [activator, single point]"
CC1CC(CC(=O)NC(=S)Nc2ccccc2Cl)C(=O)O1 (configuration not stated),inactive: 17.2%,–
O=C(NC(=S)NC(CO)c1ccccc1)c1ccc(F)cc1 (configuration not stated),inactive: 4.33%,–
CN(Cc1c(F)cccc1Cl)c1ccc(S(=O)(=O)N2CCOCC2)cn1,–,"inconclusive: 29.1 µM [inhibitor, single point]"
Cn1nc(C(=O)Nc2cccnc2)c2ccccc2c1=O,–,"inconclusive: 23.1 µM [activator, partial curve, poor fit]"
COc1ccc(C(NC(=O)CN2C(=O)NC3(CCc4ccccc43)C2=O)c2ccc(OC)cc2)cc1 (configuration not stated),–,"inconclusive: 5.17 µM [inhibitor, partial curve, poor fit]"
CCOc1ccc(Br)cc1C(=S)N1CCCC1,–,"inconclusive: 35.5 µM [activator, single point]"
CC(C)OCCCn1c(=NC(=O)c2cccs2)c(C#N)cc2c(=O)n3ccccc3nc21,–,"inconclusive: 1.83 µM [activator, partial curve, poor fit]"
Cc1cc(Cl)ccc1NC(=S)NCc1ccc(S(N)(=O)=O)cc1,inactive: 1.08%,–
C/C(=N\Nc1nccnc1Cl)c1ccc([N+](=O)[O-])cc1,–,"inconclusive: 20.6 µM [activator, partial curve, poor fit]"
CCOC(=O)C1CCN(c2cc(C)nc3ccc(OC)cc23)CC1,–,"inconclusive: 25.9 µM [inhibitor, single point]"
O=C(c1cccc(C(=O)N2CCN(c3ccccc3F)CC2)c1)N1CCN(c2ccccc2F)CC1,–,active: 16.4 µM
COc1ccc(NC(=O)CCS(=O)(=O)c2ccc3c(c2)CCCN3C(C)=O)cc1Cl,inactive: -4.47%,–
O=C(Cn1nc(C(=O)O)c2ccccc2c1=O)Nc1ccc(Cl)c(S(=O)(=O)N2CCOCC2)c1,inactive: -2.02%,–
COc1ccc(C(C(=O)NC2CCCC2)N(CCCO)C(=O)Cn2nnc(-c3ccc(C)o3)n2)cc1 (configuration not stated),inactive: 9.12%,–
CC(C)CNC(=O)c1ccccc1NC(=O)c1ccccc1N(C)S(=O)(=O)c1ccccc1,–,"inconclusive: 5.8 µM [inhibitor, partial curve, poor fit]"

Structure (SMILES),"activity change, negative = inhibition",Potency
CC1CC2(CCCC2)N(C(=O)c2ccccc2)Cc2ccccc21 (configuration not stated),inactive: 25.7%,–
Cc1nnc(Sc2nc3c(c(=O)n(C)c(=O)n3C)n2Cc2ccc(Cl)cc2)s1,inactive: -22.2%,–
COc1ccccc1N1CCN(C(=O)CSc2nnc(NC(=O)C3CCC3)s2)CC1,–,"inconclusive: 23.1 µM [inhibitor, partial curve]"
CC(C)C(=O)N1CCC2(CC1)Oc1ccc(Cl)cc1C(=O)C21CC(c2ccccc2)=NO1 (configuration not stated),–,"inconclusive: 20.6 µM [inhibitor, partial curve]"
N#Cc1ccsc1NC(=O)c1cccc([N+](=O)[O-])c1,–,active: 5.8 µM
CCOc1ccc(C(=O)Nc2cnn(Cc3ccc(Cl)c(Cl)c3)c2)cc1,inactive: -11.4%,–
COc1ccc(N2CC(C(=O)N3CCCC(C)C3)CC2=O)cc1 (configuration not stated),inactive: -6.65%,–
O=C(Nc1nc2ccccc2s1)c1cnccn1,–,"inconclusive: 0.92 µM [activator, full curve]"
O=C(O)c1cccc(-n2cccc2/C=C2/NC(=O)N(c3cccc(Cl)c3)C2=O)c1,inactive: 0.856%,–
CCOc1ccc(/C=C/[N+](=O)[O-])c2ccccc12,–,"inconclusive: 29.1 µM [inhibitor, single point]"
O=C(NCC1CCCO1)c1ccc2c3n(nc2c1)-c1ccccc1CO3 (configuration not stated),–,"inconclusive: 2.31 µM [activator, partial curve]"
Cc1ccc(CSc2nc3ccccc3c(=O)n2Cc2ccco2)cc1,–,"inconclusive: 25.9 µM [inhibitor, partial curve]"
COc1cc(-c2nnc(SCc3cc(=O)oc4cc(O)c(O)cc34)o2)cc(OC)c1OC,–,"inconclusive: 18.4 µM [inhibitor, partial curve, poor fit]"
CCN(Cc1ccccc1)C(=O)C1CCN(Cc2ccc(OC)c(OC)c2OC)CC1,inactive: -25%,–
Cc1ccc(C2CC(=O)NC(SCCC(C)C)=C2C#N)cc1 (configuration not stated),inactive: 1.82%,–
O=C1CCCc2ccccc2N1,–,"inconclusive: 18.3 µM [activator, single point]"
CCCCCc1cc(=O)oc2c(C(CCN3CCN(c4ccccc4)CC3)c3ccc4c(c3)OCO4)c(OC)cc(OC)c12 (configuration not stated),inactive: -18.4%,–
Cc1cccc2cc(CN(Cc3ccco3)C(=O)Nc3cccc(C#N)c3)c(Cl)nc12,–,"inconclusive: 20.6 µM [inhibitor, partial curve, poor fit]"
O=C(O)CC(C(=O)Nc1ccc(Cl)cc1Cl)C1CCCO1 (configuration not stated),inactive: 8.27%,–
COCCNC(=O)CSc1nc2cc(OC)c(OC)cc2c(=O)n1Cc1ccc(OC)cc1,–,"inconclusive: 23.1 µM [inhibitor, partial curve, poor fit]"
COc1ccc(CCNC(=S)NC(=O)c2cccc(Cl)c2)cc1OC,–,"inconclusive: 23.1 µM [inhibitor, single point]"
CC1CN(CCCCOc2ccc(Cl)c3ccccc23)CC(C)O1 (configuration not stated),–,"inconclusive: 18.3 µM [inhibitor, partial curve]"
Cc1noc(/C=C/c2ccco2)c1S(=O)(=O)N1CCC(C(=O)NC(C)c2ccccc2)CC1 (configuration not stated),–,"inconclusive: 29.1 µM [inhibitor, single point]"
Fc1c(F)c(F)c(/C=N/NC(=S)Nc2cccnc2)c(F)c1F,–,"inconclusive: 29.1 µM [activator, single point]"

# Arranged by number of heavy atoms (falling): some entries from above.
Structure (SMILES),"activity change, negative = inhibition",Potency
CC(C)C(=O)N1CCC2(CC1)Oc1ccc(Cl)cc1C(=O)C21CC(c2ccccc2)=NO1 (configuration not stated),–,"inconclusive: 20.6 µM [inhibitor, partial curve]"
Cc1cccc2cc(CN(Cc3ccco3)C(=O)Nc3cccc(C#N)c3)c(Cl)nc12,–,"inconclusive: 20.6 µM [inhibitor, partial curve, poor fit]"
Cc1ccc(CSc2nc3ccccc3c(=O)n2Cc2ccco2)cc1,–,"inconclusive: 25.9 µM [inhibitor, partial curve]"
O=C(O)CC(C(=O)Nc1ccc(Cl)cc1Cl)C1CCCO1 (configuration not stated),inactive: 8.27%,–

# Next results follow:

Structure (SMILES),"activity change, negative = inhibition",Potency
CC(C)c1nnc(SCC(=O)NC2CCCCC2)n1C,inactive: 6.19%,–
COc1ccc(C2=CC(=O)C[C@H](c3ccc(Cl)cc3)C2)cc1,inactive: -19.4%,–
Cc1cccc(CCN(CC(=O)NC2CCCCC2)C(=O)c2csnn2)c1,inactive: 0.972%,–
O=C(Nc1cccc(O)c1)C1CC(c2c(F)cccc2Cl)=NO1 (configuration not stated),–,"inconclusive: 35.5 µM [activator, single point]"
O=C(COC(=O)c1cc(S(=O)(=O)N2CCCCC2)ccc1N1CCOCC1)c1ccc(F)cc1,–,active: 10.3 µM
Cc1cc(C)nc(NC(=NCCc2c[nH]c3ccccc23)NC(=O)Nc2ccc(Cl)cc2)n1,–,"inconclusive: 23.1 µM [inhibitor, single point]"
O=c1[nH]n(-c2ccc(F)cc2)c2ncccc12,–,"inconclusive: 23.1 µM [activator, single point]"
Cc1nn(CC(=O)NC(C)C(C)C)c(C)c1S(=O)(=O)N1CCCCC1 (configuration not stated),–,"inconclusive: 32.6 µM [activator, single point]"
CC(C)C(c1nnnn1Cc1ccc2c(c1)OCO2)N1CCN(c2ccccc2)CC1 (configuration not stated),inactive: -0.118%,–
COc1ccc(NC(=O)CN2CCN(Cc3ccccc3)CC2)cc1,inactive: -9.4%,–
O=C(COC(=O)c1nc(-c2ccccc2)n(-c2cccc(C(F)(F)F)c2)n1)NCc1cccs1,inactive: 11.5%,–
COc1ccccc1C1N=C(c2ccccc2C)NO1 (configuration not stated),–,"inconclusive: 16.4 µM [activator, partial curve]"
Cc1cc(C)cc(C(=O)NCC(=O)OCC(=O)Nc2ccc(C)cc2Br)c1,inactive: 10.5%,–
Cn1nnnc1SCC(=O)NCC(=O)c1ccccc1,inactive: 22%,–
Cc1ccc(CNC(=O)CCC2CCCN(Cc3c(C)nn(C(C)C)c3C)C2)o1 (configuration not stated),inactive: 1.57%,–
CC(C)CC1NC(=O)N(CC(=O)N(C)C2CCCCC2)C1=O (configuration not stated),–,"inconclusive: 25.9 µM [activator, partial curve, poor fit]"
Cc1ccc(OCC2Cn3c(nc4c3c(=O)[nH]c(=O)n4C)O2)cc1C (configuration not stated),–,"inconclusive: 25.9 µM [inhibitor, single point]"
CCC1OC(c2ccc([N+](=O)[O-])cc2)=Nc2ccccc21 (configuration not stated),–,"inconclusive: 8.2 µM [inhibitor, partial curve]"
CC1CCc2c(sc3nc(CN4CCN(S(=O)(=O)c5ccccc5[N+](=O)[O-])CC4)[nH]c(=O)c23)C1 (configuration not stated),–,"inconclusive: 29.1 µM [inhibitor, single point]"
Oc1ccc2ccccc2c1Br,–,"inconclusive: 6.51 µM [inhibitor, partial curve, poor fit]"
Cc1nn(C)c(C)c1CN(C)S(=O)(=O)c1ccc(F)cc1,–,"inconclusive: 23.1 µM [inhibitor, partial curve, poor fit]"
O=C(NC1CCN(C(=O)N2c3ccccc3Sc3ccccc32)CC1)c1ccco1,–,active: 23.1 µM
O=C1NC(c2ccc(Br)cc2)=N/C1=C/c1ccco1,–,"inconclusive: 4.11 µM [activator, full curve]"
COc1ccc(NC(=O)COC(=O)C23CC4CC(CC(O)(C4)C2)C3)cc1Cl,–,"inconclusive: 6.51 µM [activator, single point]"

# Source: PubChem BioAssay AID504467 (National Center for Advancing Translational Sciences (NCATS), 2011)
